Results from PubChem BioAssay AID1347135 (National Center for Advancing Translational Sciences (NCATS), 2019).
Inconclusive means that the source gave no clear call. Such entries were picked first, then a sample of the others. Potencies beside an inconclusive call are fits to weak or partial responses and may not hold up. Calls of active or inactive are those of the source. Calls come from the whole dose curve; as a rule, active = well fitted inhibition curve with a large enough effect; inconclusive = small, poorly fitted or top-dose-only effect; inactive = flat fitted curve, though single readings scatter.

Assay: qHTS of pediatric cancer cell lines to identify multiple opportunities for drug repurposing: Orthogonal 3D viability screen for SK-N-SH cells
Conditions: SK-N-SH 3D spheroid viability, PI/Hoechst imaging, 72 h; series mostly up to 30.7 µM
From the text: Drug repurposing or repositioning has been offered as a strategy for drug development in oncology programs. This approach has special potential for childhood cancers and other rare or orphan diseases, where the expected return on new drug development has been a disincentive to pharmaceuticals. […] In this project we exploit the poly-pharmacology of drugs to discover new indications via phenotypic screening of a panel of 19 well-characterized cell lines derived from solid tumors seen in children and adolescents. The goal is to identify approved drugs with previously unrecognized anticancer properties that has the potential to reveal new mechanisms and biological processes involved in carcinogenesis or drug resistance. We employed a titration-based paradigm (quantitative high-throughput screening or qHTS), where all compounds were tested at multiple concentrations for their effect on cell viability. Concentration-response curves (CRCs) were derived directly from the primary screen, and both potency and efficacy values were used to identify compounds with robust bioactivity profiles. […] These two assays will be used to validate active compounds and assess the correlation of compound's potency in 2D vs 3D cultures on selected cell lines. Assay Submitter: Nathalia J. Martinez, National Center for Advancing Translational Sciences, National Institutes of Health, Rockville, MD, USA; email: natalia.martinez@nih.gov Shen, M et al. Quantitative high-throughput phenotypic screening of pediatric cancer cell lines identifies multiple opportunities for drug repurposing. Oncotarget 2017 Dec 19;9(4):4758-4772. PMID 29435139.
The cells were obtained from University of North Carolina (UNC), Pediatric Preclinical Testing Program (PPT), and Coriell Institute (CI). qHTS viability in 3D culture: Cells were assayed in phenol red-free growth media at a density of 1,000 cells/well, with the exception of Daoy, and SH-N-SH which were assayed at 1,500 cells/ well. Thirty muL of cells were dispensed into 384-well, ULA, round bottom plates (Corning) using a Multidrop dispenser. Plates were spun down at 1,000 rpm for 1 min and incubated at 37 degrees C, 5% CO2, under a humidified atmosphere for either 24 (Daoy) or 48 hours (all other cell lines) to allow spheroid formation. Ninety-two nanoliter of compounds and controls (neutral control DMSO or positive control bortezomib at final concentrations of 0.5 µM) were subsequently transferred via GNF Pintool. Plates were sealed using a breathable seal (Diversified Biotech, Dedham, MA) and incubated for 72 hours at 37 degrees C. Spheroid viability was first determined by high-content imaging using Hoechst 33342 and Propidium Iodide (PI, ThermoFisher Scientific), followed by addition of CellTiter-Glo 3D (Promega). Specifically, 3 µL/well of PBS containing a 1:500 dilution of both dyes was dispensed using Multidrop. Dyes were incubated for 1 hour before imaging using the Celigo Image Cytometer. Then, 20 µl of CellTiter-Glo 3D were added per well. Plates were incubated for 30 min at RT on a VWR microplate shaker (300 rpm) and analyzed for luminescence intensity using a ViewLux High-throughput CCD imager equipped with clear filters. Image analysis was done using the Celigo Tumorsphere 1+2+3 application software as previously described. Briefly, spheroids were first identified using bright-field image segmentation, and then the fluorescent intensities of PI and Hoechst 3342 were obtained using red (EX: 531/40 nm, EM: 629/53 nm) and blue (EX: 377/50 nm, EM: 470/22 nm) filters, respectively. The data were exported to Excel, and the average fluorescent intensities were used to calculate the ratio of PI over Hoechst, which was used to quantify viability. Percent activity based on neutral and positive control bortezomib was derived.

Row | Compound | Potency
1 | C[C@@H]1C[C@H]2[C@@H]3CCC4=CC(=O)C=C[C@]4(C)[C@@]3(Cl)[C@@H](O)C[C@]2(C)[C@@]1(OC(=O)c1ccco1)C(=O)CCl | inactive
2 | Nc1ccn([C@@H]2O[C@H](CO)[C@H](O)C2(F)F)c(=O)n1 | inconclusive: 0.362 µM [inhibitor, full curve]
3 | CCCCc1nc2cc(C=CC(=O)NO)ccc2n1CCN(CC)CC | active: 0.511 µM
4 | C[C@H]1[C@@H](OC(=O)CCC(=O)O)O[C@@H]2O[C@@]3(C)CC[C@@H]4[C@H](C)CC[C@@H]1[C@@]24OO3 | inconclusive: 5.74 µM [inhibitor, full curve]
5 | CCc1nc(N)nc(N)c1-c1ccc(Cl)cc1 | inconclusive: 20.4 µM [inhibitor, single point]
6 | C[C@]12C=CC(=O)C=C1CC[C@H]1[C@@H]3C[C@@H](O)[C@](O)(C(=O)CO)[C@@]3(C)C[C@H](O)[C@@]12F | inconclusive: 5.74 µM [inhibitor, full curve]
7 | C=C1C(=CC=C2CCC[C@]3(C)[C@@H]([C@H](C)C=C[C@H](C)C(C)C)CC[C@@H]23)C[C@@H](O)C[C@@H]1O | inconclusive: 9.09 µM [inhibitor, partial curve]
8 | CN(C)/N=N/c1nc[nH]c1C(N)=O | inactive
9 | CC(C)Cc1ccc(C(C)C(=O)O)cc1 (stereo not given) | inconclusive: 16.2 µM [inhibitor, single point]
10 | COc1c(C)c2c(c(O)c1C/C=C(\C)CCC(=O)OCCN1CCOCC1)C(=O)OC2 | inconclusive: 1.62 µM [inhibitor, full curve]
11 | Nc1nc(Cl)nc2c1ncn2[C@@H]1O[C@H](CO)[C@@H](O)[C@@H]1F | inactive
12 | CCOc1cc(N2CCC(O)CC2)ccc1Nc1ncc2c(n1)N(C)c1ccccc1C(=O)N2C | inconclusive: 11.4 µM [inhibitor, partial curve]
13 | COc1cc(C(C)=O)ccc1OCCCN1CCC(c2noc3cc(F)ccc23)CC1 | inconclusive: 10.2 µM [inhibitor, partial curve]
14 | COC(=O)Nc1nc2ccc(S(=O)c3ccccc3)cc2[nH]1 (stereo not given) | inconclusive: 0.228 µM [inhibitor, full curve]
15 | CC(=O)OCC(=O)[C@@]12N=C(C)O[C@@H]1C[C@H]1[C@@H]3CCC4=CC(=O)C=C[C@]4(C)[C@H]3[C@@H](O)C[C@@]12C | inactive

Three entries from above, sorted by SMILES length, largest number first.
Row | Compound | Potency
11 | Nc1nc(Cl)nc2c1ncn2[C@@H]1O[C@H](CO)[C@@H](O)[C@@H]1F | inactive
13 | COc1cc(C(C)=O)ccc1OCCCN1CCC(c2noc3cc(F)ccc23)CC1 | inconclusive: 10.2 µM [inhibitor, partial curve]
14 | COC(=O)Nc1nc2ccc(S(=O)c3ccccc3)cc2[nH]1 (stereo not given) | inconclusive: 0.228 µM [inhibitor, full curve]
